From PMC8305169, “Two Pathway-Specific Transcriptional Regulators, PltR and PltZ, Coordinate Autoinduction of Pyoluteorin in Pseudomonas protegens Pf-5” (Microorganisms, 2021)
Construct, isoform or probe ends are uncertain for at least one entry. A negative result means that nothing was seen under these conditions. Tags and fusion partners may be left off the protein sequences shown. A weaker result is weaker than the reference pair of the same experiment.

Target: T1, PltZ (Pseudomonas protegens Pf-5) (UniProt Q4KCY3)
T1 sequence (looked up, limits assumed): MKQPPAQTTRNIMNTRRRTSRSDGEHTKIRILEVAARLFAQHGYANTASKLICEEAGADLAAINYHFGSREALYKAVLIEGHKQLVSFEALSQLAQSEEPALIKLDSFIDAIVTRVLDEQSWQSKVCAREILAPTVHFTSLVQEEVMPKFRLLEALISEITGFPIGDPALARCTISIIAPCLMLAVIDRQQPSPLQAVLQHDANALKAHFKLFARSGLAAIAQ
Assay: EMSA
Details: EMSA: LightShift kit, 1 nM biotin-labeled probe, 20 uL, 25 C, 20 min, 5% native PAGE in 0.5x TBE at 4 C, protein stock in 20 mM Tris pH 7.0, 100 mM NaCl, recombinant protein, protein details: N-terminal 6xHis (pET28a), label: 3' biotin

Sequence	binding result	binding result (pyoluteorin (micromolar) releases the probe)
TATTTTCTAATTTAAATTCAAATTGAATTTTAATTAGGCCTTGG (double strand) [pltIZ probe]	binds	binds more weakly
TCGGGGCTGTTTTGCCTTTGCGGATATGCAAAGGCCTTTTGCAAAAACGGCTATTCACAAGTGCAT (double strand) [pltRL probe]	no binding	
